Measured values as given in PubChem BioAssay AID488837 (National Center for Advancing Translational Sciences (NCATS), 2010).
The campaign covered roughly 330,000 compounds. About 20 (0.006%) were called active. Inconclusive results, whose numbers are uncertain, are shown with a selection of clear calls. The call rests on the fitted dose curve; in most records, active means well fitted inhibition curve with a large enough effect; inconclusive means small, poorly fitted or top-dose-only effect, or effect the other way; inactive means flat fitted curve, though single readings scatter. Potencies of inconclusive entries are doubtful fits and often do not repeat.

By UniProt entry, the sequences of proteins in these tests, tags left out. Where a name states a change or a piece, a line headed by the entry shows the natural chain unless it says otherwise.
UniProt O00167: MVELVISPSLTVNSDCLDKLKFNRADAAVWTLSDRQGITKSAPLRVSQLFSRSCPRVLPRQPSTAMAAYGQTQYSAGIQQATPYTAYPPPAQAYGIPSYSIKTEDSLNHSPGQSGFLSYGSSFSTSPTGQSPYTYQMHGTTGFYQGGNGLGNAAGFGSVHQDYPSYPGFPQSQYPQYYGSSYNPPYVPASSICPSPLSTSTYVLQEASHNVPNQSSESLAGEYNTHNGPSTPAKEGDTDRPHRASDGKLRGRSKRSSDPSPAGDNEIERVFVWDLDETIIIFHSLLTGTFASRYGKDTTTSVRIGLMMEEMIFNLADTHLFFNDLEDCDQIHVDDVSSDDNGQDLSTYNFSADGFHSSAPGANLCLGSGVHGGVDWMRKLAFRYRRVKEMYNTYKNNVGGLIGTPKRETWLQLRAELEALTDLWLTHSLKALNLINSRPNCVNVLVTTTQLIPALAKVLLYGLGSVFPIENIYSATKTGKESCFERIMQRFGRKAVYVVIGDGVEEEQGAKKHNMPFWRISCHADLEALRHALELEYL

What follows are compounds tested against Protein phosphatase EYA2 (Homo sapiens) (UniProt O00167) (assay: qHTS Assay for Inhibitors of the Phosphatase Activity of Eya2). Settings: recombinant Eya2, OMFP fluorescence dephosphorylation (OMFP is methylfluorescein phosphate); activity, negative = inhibition: at 76.9 µM (top of the series) unless noted.
How it was run: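 Eya2 (0.2 uM) preincubated 10 min at ambient with compound, then OMFP substrate added at 50 uM; 10 min reaction in 50 mM HEPES pH 7.5, 50 mM NaCl, 5 uM MgCl2, 0.05% BSA, 1 mM DTT. Fluorescence read at Ex 485/Em 525 nm.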
On the % scale 0 is the no-effect control and ±100 the full control effect; potency means the concentration at half of the fitted maximal effect.

SMILES | Potency | activity, negative = inhibition
COc1ccc(Nc2ccc([N+](=O)[O-])cn2)cn1 | inconclusive: 17.8 µM [inhibitor, single point] | 
CCN1C(=O)[C@H]2[C@@H](c3ccc(Cl)cc3)N3C(=O)CN(CC4CC4)C(=O)[C@@]3(Cc3ccccc3)[C@H]2C1=O | inconclusive: 100 µM [inhibitor, single point] | 
CCc1ccc2nc(NC(=O)CCCc3cccs3)sc2c1 | inactive | 
Cc1ccc2cc3c(N)c(C(=O)Nc4c(C)[nH]c(=O)[nH]c4=O)sc3nc2c1 | inactive | 
CCOC(=O)COn1c(=O)c(-c2cccs2)[n+]([O-])c2ccccc21 | inconclusive: 100 µM [inhibitor, single point] | 
NS(=O)(=O)c1cccc(NC(=O)COC(=O)C2CCN(S(=O)(=O)c3cccs3)CC2)c1 | inconclusive: 22.4 µM [inhibitor, single point] | 
Cc1c(C(=O)NCCSCc2c(Cl)cccc2Cl)cccc1[N+](=O)[O-] |  | inconclusive: -33.6% [inhibitor]
COc1ccccc1N1CN(CCc2ccccc2)CNC1=S | inconclusive: 100 µM [inhibitor, single point] | 
CN1CCCC(OC(=O)c2cc(Cl)cc(Cl)c2)C1 (stereo not given) | inconclusive: 25.1 µM [inhibitor, single point] | 
O=C(CCSc1ccc(Cl)c(Cl)c1)NC12CC3CC(CC(C3)C1)C2 | inconclusive: 126 µM [inhibitor, partial curve] | 
Cc1nc(SCC(=O)Nc2cc(C)on2)c2c3c(sc2n1)CCCC3 | inconclusive: 70.8 µM [inhibitor, partial curve] | 
CCOc1ccccc1NC(=O)CSc1nc2cc(O)ccc2c(=O)n1-c1ccc(OC)c(OC)c1 | inconclusive: 20 µM [inhibitor, single point] | 
COc1ccc(CNS(=O)(=O)NCc2ccccc2)cc1 | inconclusive: 63.1 µM [inhibitor, partial curve, poor fit] | 
O=c1[nH]cnc2sc(-c3ccccc3)cc12 | inactive | 
Cc1c(C2=CCN(S(=O)(=O)c3ccc(Br)cc3)CC2)c2ccccc2n1C | inactive | 
Nc1c(-c2ccccc2)nc(Cl)nc1-c1ccccc1 | inactive | 
COc1ccc(S(=O)(=O)N2CCOC23CCN(S(=O)(=O)c2cc(F)ccc2F)CC3)cc1 | inactive | 
CC(=O)c1ccc(NC(=O)CN2CCN(CC(=O)Nc3ccc(C(C)=O)cc3)CC2)cc1 | inconclusive: 17.8 µM [inhibitor, single point] | 
COC(=O)C1=C(C)N(c2cccc(C)c2)C(=O)/C1=C\c1cccs1 | inconclusive: 251 µM [inhibitor, partial curve, poor fit] | 
O=C(CCc1nc2ccccc2s1)NCc1ccccc1F | inconclusive: 17.8 µM [inhibitor, partial curve] | 
O=C(Nc1ccc(S(=O)(=O)NCc2ccco2)cc1)c1cccc(F)c1 | inconclusive: 22.4 µM [inhibitor, single point] | 
Cc1cccc(C)c1N1CCc2cn[nH]c21 | inconclusive: 22.4 µM [inhibitor, single point] | 
COc1cccc2sc3ccc(NCc4ccc5c(c4)OCO5)cc3c(=O)c12 | inactive | 
O=C(Cc1ccccc1)Nc1nc(-c2cccs2)cs1 | inactive | 

SMILES | Potency | activity, negative = inhibition
CC1(C)CCC2=C(O1)c1ccccc1C(=O)C2=O | inactive | 
CC[n+]1ccc2cc(OC)c(OC)cc2c1Cc1ccc(OC)c(OC)c1 | inconclusive: 100 µM [inhibitor, single point] | 
c1ccc(SCc2nc3ccccc3s2)nc1 | inconclusive: 100 µM [inhibitor, single point] | 
CC1CC(C)CN(C(=O)c2ccc(S(=O)(=O)N3CC(C)CC(C)C3)cc2)C1 (stereo not given) | inconclusive: 398 µM [inhibitor, partial curve, poor fit] | 
Cc1c(NC(=O)C(C)OC(=O)c2cccc([N+](=O)[O-])c2)c(=O)n(-c2ccccc2)n1C (stereo not given) | inconclusive: 100 µM [inhibitor, single point] | 
O=C(c1ccc(COc2ccc(Cl)cc2)o1)N1CCN(Cc2ccc3c(c2)OCO3)CC1 | inconclusive: 79.4 µM [inhibitor, single point] | 
COCCn1nnnc1C(C(C)C)N(Cc1cccnc1)Cc1cc2cc(OC)ccc2[nH]c1=O (stereo not given) | inactive | 
Cc1cc(SCC(=O)Nc2ccccc2)n2ncc(-c3ccccc3)c2n1 | inconclusive: 100 µM [inhibitor, single point] | 
CCOC(=O)c1cn2cccnc2n1 | inconclusive: 28.2 µM [inhibitor, partial curve] | 
O=C(NCc1nnc(SCC(=O)N2CCCC2)o1)c1ccco1 | inconclusive: 39.8 µM [inhibitor, single point] | 
Cc1ccc(NC(=O)Nn2cnnc2)cc1Cl | inactive | 
COc1cc([C@@H]2C[C@H]3CN(c4ccccc4)C(=O)[C@]34CCCN24)cc(OC)c1OC | inconclusive: 28.2 µM [inhibitor, partial curve] | 
COc1ccc(C(=O)CSc2ccc(-c3ccco3)nn2)cc1 | inactive | 
CC1=Nc2ccccc2/C1=C/c1sc(=S)n(-c2cccc(C(=O)O)c2)c1O | inconclusive: 79.4 µM [activator, partial curve] | 
FC(F)(F)c1nc(N2CCCC2)ncc1-c1nnnn1-c1ccc(Cl)cc1 | inconclusive: 79.4 µM [inhibitor, single point] | 
CCN1C(=O)/C(=C\C(=O)c2cccs2)c2cc(Br)ccc21 | inactive | 
CN(C)c1ccc(/C=N/NC(=O)c2ccc3nc[nH]c3c2)cc1 | inconclusive: 89.1 µM [inhibitor, single point] | 
O=C(CSc1ccc(-c2ccccn2)nn1)N1CCCC1 | inactive | 
CCN(CC)C(=O)CNC(=O)c1nn(-c2ccc(OC)c(Cl)c2)c(=O)c2ccccc12 | inconclusive: 22.4 µM [inhibitor, single point] | 
CCn1cc([N+](=O)[O-])c(C(=O)Nc2ccc3c(c2)OCCO3)n1 | inconclusive: 112 µM [inhibitor, partial curve, poor fit] | 
O=C(c1cccnc1)N1CCN(c2ccc3ccccc3n2)CC1 | inconclusive: 100 µM [inhibitor, single point] | 
COc1cc(/C=C(\C#N)c2nc3ccccc3[nH]2)cc(OC)c1O | inconclusive: 50.1 µM [activator, partial curve] | 
CC(=O)Oc1ccc(-c2csc(Nc3cccc(C)n3)n2)cc1 | inconclusive: 89.1 µM [inhibitor, single point] | 

Among those listed so far, 2 have bromine:
SMILES | Potency | activity, negative = inhibition
Cc1c(C2=CCN(S(=O)(=O)c3ccc(Br)cc3)CC2)c2ccccc2n1C | inactive | 
CCN1C(=O)/C(=C\C(=O)c2cccs2)c2cc(Br)ccc21 | inactive | 

Single values from the list.
COc1ccccc1N1CN(CCc2ccccc2)CNC1=S | Potency: inconclusive: 100 µM [inhibitor, single point]
CCN1C(=O)[C@H]2[C@@H](c3ccc(Cl)cc3)N3C(=O)CN(CC4CC4)C(=O)[C@@]3(Cc3ccccc3)[C@H]2C1=O | Potency: inconclusive: 100 µM [inhibitor, single point]

Remaining list, next part

SMILES | Potency | activity, negative = inhibition
O=c1[nH]c(Cn2nnc(-c3ccccc3)n2)nc2scc(-c3ccccc3)c12 | inconclusive: 17.8 µM [inhibitor, single point] | 
O=c1c2ccccc2nc(SCCN2CCOCC2)n1CCc1ccccc1 | inactive | 
Cc1ccc(-c2[nH][nH]c(=O)c(=O)c2N=Nc2ccccc2)cc1 | inconclusive: 158 µM [inhibitor, partial curve, poor fit] | 
Cc1cccnc1NCc1ccc(O)c2ncccc12 | inactive | 
O=C(O)c1[nH]c2ccccc2c1C=NCc1ccccc1Cl | inconclusive: 89.1 µM [inhibitor, single point] | 
CCOC(=O)c1ccccc1NC(=O)c1cncc(Br)c1 | inactive | 
Cc1cccnc1NC(=O)Nc1ccc(Cl)cc1 | inconclusive: 224 µM [inhibitor, partial curve] | 
CCC(=O)NC1=C(Nc2ccc(N)cc2)C(=O)c2ccccc2C1=O | inactive | 
Cc1cc(-c2csc(NC(=O)c3ccc(=O)[nH]c3)n2)c(C)n1Cc1ccco1 | inconclusive: 79.4 µM [inhibitor, single point] | 
CC(C)COC(=O)N(C)c1ccc(C(O)(C(F)(F)F)C(F)(F)F)cc1 |  | inconclusive: -46.5% [inhibitor]
Cc1c(-c2ccc(Cl)cc2)[n+](=O)c2c(n1[O-])CCCC2 | inconclusive: 70.8 µM [inhibitor, partial curve, poor fit] | 
CC1CCC2(CC1)NC(=O)N(CC(=O)Nc1sc3c(c1C(N)=O)CCC3)C2=O (stereo not given) | inactive | 
O=S(=O)(Nc1ccc2nc(-c3ccc(Br)o3)[nH]c2c1)c1ccccc1 | inconclusive: 28.2 µM [inhibitor, single point] | 
COc1cccc(CC(=O)Nc2nccs2)c1 | inactive | 
CC1(C(=O)OCC(=O)Nc2ccccc2Cl)CC1(Cl)Cl (stereo not given) | inconclusive: 178 µM [inhibitor, partial curve] | 
Cc1ncc(CO)c(/C=N/NC(=O)c2ccccc2Br)c1O | inactive | 
Cc1cc(C(=O)NNc2ccccc2F)no1 | inconclusive: 100 µM [inhibitor, single point] | 
CCN(c1ccc(F)cc1)S(=O)(=O)c1cccc2nsnc12 | inconclusive: 100 µM [inhibitor, single point] | 
Cc1cc(C(=O)NNS(=O)(=O)c2cc(C(=O)O)ccc2Cl)c(C)n1-c1ccccc1 | inconclusive: 39.8 µM [activator, partial curve] | 
COc1ccccc1NC(=O)c1cc(C)nc2ccccc12 | inconclusive: 89.1 µM [inhibitor, single point] | 
O=C(NC1CCN(C(=O)C2CCCCC2)CC1)c1ccccc1 | inconclusive: 126 µM [inhibitor, partial curve, poor fit] | 
Cc1cccc(Cc2nnc(CCC(=O)NCc3cnc4ccccn34)o2)c1 | inconclusive: 14.1 µM [inhibitor, single point] | 
